Data taken from PubChem BioAssay AID1671190 (National Center for Advancing Translational Sciences (NCATS), 2021).
Out of some 580,000 compounds screened, about 6,100 (1.1%) were called active. Inconclusive means that the source gave no clear call. Such entries were picked first, then a sample of the others. Calls follow the shape of the dose curve; as a rule, active = well fitted inhibition curve with a large enough effect; inconclusive = small, poorly fitted or top-dose-only effect, or another doubt; inactive = no such curve, though single readings can be large or run the other way. Potencies of inconclusive entries are doubtful fits and often do not repeat.

Protein sequences, listed by entry. Tags and fused reporters are not part of them.
UniProt P18054, whole entry, looked up: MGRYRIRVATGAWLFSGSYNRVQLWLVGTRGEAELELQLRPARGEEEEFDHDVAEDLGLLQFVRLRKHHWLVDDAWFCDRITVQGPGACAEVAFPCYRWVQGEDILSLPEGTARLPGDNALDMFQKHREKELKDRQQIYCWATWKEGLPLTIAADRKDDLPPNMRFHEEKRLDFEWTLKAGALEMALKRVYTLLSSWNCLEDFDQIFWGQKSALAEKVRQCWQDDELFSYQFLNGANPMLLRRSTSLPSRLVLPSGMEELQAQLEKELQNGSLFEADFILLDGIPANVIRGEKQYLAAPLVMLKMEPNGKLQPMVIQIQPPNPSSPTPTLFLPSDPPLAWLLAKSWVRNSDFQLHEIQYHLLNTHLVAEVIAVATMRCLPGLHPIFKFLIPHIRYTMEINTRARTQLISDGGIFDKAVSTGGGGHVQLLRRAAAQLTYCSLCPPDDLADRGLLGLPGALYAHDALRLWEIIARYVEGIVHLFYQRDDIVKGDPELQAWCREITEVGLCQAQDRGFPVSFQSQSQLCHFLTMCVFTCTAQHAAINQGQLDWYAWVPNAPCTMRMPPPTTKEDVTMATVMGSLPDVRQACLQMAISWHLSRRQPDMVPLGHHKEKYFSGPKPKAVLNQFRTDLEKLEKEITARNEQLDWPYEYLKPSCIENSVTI

Target: Polyunsaturated fatty acid lipoxygenase ALOX12 (Homo sapiens) (UniProt P18054)
Experiment: Primary qHTS assay for inhibitors of human arachidonate 12S-lipoxygenase (ALOX12): Round 2
Conditions: purified 12hLO, xylenol orange hydroperoxide absorbance; activity change, negative = inhibition: at 108 µM (top of the series) unless noted
Outline: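 Purified human 12hLO at 150 nM in 25 mM Hepes, 0.01% Triton X-100, pH 7.0, preincubated 15 min at room temperature with compound. Reaction started with 40 uM arachidonic acid, 30 min at room temperature. Hydroperoxide measured by Fe-xylenol orange, 573/405 nm absorbance ratio.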
% is scaled to controls: 0 for no effect and ±100 for the full control effect; potency is read from the fitted curve at half-maximal effect.

Compound | Potency | activity change, negative = inhibition
O=C(CSc1c2c(nc3ccc(Cl)cc13)CCCC2)Nc1nc2ccccc2s1 | inconclusive: 3.16 µM [inhibitor, full curve, poor fit] | –
COc1ccc(NC(=O)CSc2nnc(-c3ccoc3C)n2CCc2ccccc2)cc1 | inconclusive: 100 µM [inhibitor, partial curve, poor fit] | –
Cc1ccc(Cl)cc1NC(=O)COc1ncnc2ccccc12 | inconclusive: 63.1 µM [inhibitor, partial curve, poor fit] | –
O=C(COc1ccc(Br)cc1)NCCNC(=O)c1cccnc1 | inconclusive: 100 µM [inhibitor, partial curve, poor fit] | –
CC1CC(C)(C)CC2(C1)NC(=O)N(CC(=O)Nc1cc([N+](=O)[O-])ccc1F)C2=O (centres undefined) | inconclusive: 141 µM [inhibitor, partial curve, poor fit] | –
Cc1cc(C)n(CCCN(C)Cc2cc3n(n2)CCNC3)n1 | – | inactive: 33.1%
O=C(O)C1CCN(C(=O)c2ccccc2N2C(=O)[C@@H]3Cc4c([nH]c5ccccc45)C(c4cccc(Cl)c4)N3C2=O)CC1 (some centres undefined) | inconclusive: 50.1 µM [inhibitor, partial curve, poor fit] | –
CCn1c(C)nc2cc(C(=O)NNS(=O)(=O)c3ccccc3F)ccc21 | active: 4.47 µM | –
N#Cc1cc(C(=O)c2cc(Br)ccc2O)cn(Cc2ccccc2)c1=O | – | inactive: -28%
COc1ccc(C2(C(N)=O)CCCC2)cc1 | – | inactive: 29.5%
Cc1nc2ccc(F)cc2cc1C(=O)NCC1CCCO1 (centres undefined) | inconclusive: 2 µM [inhibitor, full curve, poor fit] | –
Cc1nn(CC(=O)Nc2ccc(Cl)cc2Cl)c(=O)c2ccccc12 | inconclusive: 50.1 µM [inhibitor, partial curve, poor fit] | –
CC(C)NC(=O)NC(=O)CSC1=Nc2ccccc2CS1 | inconclusive: 3.55 µM [inhibitor, partial curve, poor fit] | –
COc1ccc(Cn2c(=O)sc3ccccc32)cc1OC | inconclusive: 15.8 µM [inhibitor, full curve, poor fit] | –
O=C(c1nnc(COc2ccc(F)cc2)n1-c1ccccc1)N1CCC[C@@H]1C(c1ccccc1)c1ccccc1 | inconclusive: 6.31 µM [inhibitor, partial curve, poor fit] | –
CCOC(=O)C1=C(C)NC(C)=C(C(=O)OC)C1c1ccco1 (centres undefined) | – | inactive: 7.18%
Nc1sc2c(c1C(=O)NCCc1ccccc1)CCCC2 | inconclusive: 17.8 µM [inhibitor, partial curve] | –
Cc1c(/C=N/NC(=O)CNc2ccccc2)c2ccccn2c1C(=O)c1ccccc1 | – | inactive: 1.18%
FC(F)(F)c1ccc(Cl)c(N/N=C/c2ccc(Cl)cc2Cl)c1 | active: 39.8 µM | –
COc1ccc2[nH]c(C)c(C(=O)CN3CCC(C(N)=O)CC3)c2c1 | inconclusive: 70.8 µM [inhibitor, partial curve, poor fit] | –
CN(CC[C@H]1CN(C(=O)Cc2cccs2)CC[C@H]1CC(=O)O)c1ccccc1 | inconclusive: 15.8 µM [inhibitor, full curve] | –
Cc1[nH]c(=S)c(C#N)c(C)c1C(=O)Nc1ccccc1 | active: 25.1 µM | –

Compound | Potency | activity change, negative = inhibition
COc1cc(C2C=C(C(=O)O)Nc3ncnn32)ccc1OCCC(C)C (centres undefined) | – | inactive: -15.6%
CCCCCNC(=O)c1ccc2c(c1)nc(C)n2-c1cccc(C)c1 | – | inactive: -13.4%
Clc1ccccc1CN1CCN(/N=C/C=C\c2ccco2)CC1 | inconclusive: 44.7 µM [inhibitor, partial curve, poor fit] | –
C=CCNC(=O)N1CCN(C(c2ccc(F)cc2)c2ccc(F)cc2)CC1 | – | inactive: -5.91%
CCN(Cc1ccc(C)o1)C(=O)C(C)n1ccnc1C(C)C (centres undefined) | – | inactive: 2.8%
Cc1nc(-c2ccc(C)c(S(=O)(=O)N3CCC(C(=O)Nc4ccc(Cl)cc4)CC3)c2)no1 | inconclusive: 0.178 µM [inhibitor, full curve, poor fit] | –
CCOc1ccc(S(=O)(=O)NC(Cc2c[nH]c3ccccc23)C(=O)O)cc1 (centres undefined) | inconclusive: 44.7 µM [inhibitor, partial curve] | –
COc1cc2c(cc1OC)[C@@H]1C(=O)c3ccc4c(c3O[C@@H]1CO2)C=CC(C)(C)O4 | inconclusive: 39.8 µM [inhibitor, partial curve, poor fit] | –
COc1ccccc1CNCc1ccc(C)cc1 | active: 1 µM | –
CCOC(=O)c1ccc(NC(=O)c2nccnc2C(=O)O)cc1 | inconclusive: 2 µM [inhibitor, full curve] | –
CCC(=O)NC(=S)Nc1cccc(NC(=O)c2ccccc2Cl)c1 | inconclusive: 31.6 µM [inhibitor, single point] | –
COc1cc(NC(=S)NC2CC2)c(OC)cc1Cl | inconclusive: 89.1 µM [inhibitor, single point] | –
O=Cc1ccc(-c2ccc(C(=O)O)cn2)cc1 | inconclusive: 1.26 µM [inhibitor, full curve, poor fit] | –
Cc1ccc(CNC(=O)CCS(=O)(=O)c2ccc3c(c2)NC(=O)CO3)cc1 | – | inactive: -12.5%
CN(C)C(=O)CN(C)c1nc(-c2ccsc2)nc2ccccc12 | – | inactive: -10.9%
COc1ccc2[nH]cc(CCNS(=O)(=O)c3ccccc3)c2c1 | inconclusive: 158 µM [inhibitor, partial curve, poor fit] | –
Cc1ccc(OCC(=O)N/N=C/c2ccccc2)c([N+](=O)[O-])c1 | – | inactive: -6.66%
O=C(CSc1nc2ccccc2n1S(=O)(=O)c1cccc([N+](=O)[O-])c1)NCc1cccs1 | inconclusive: 4.47 µM [inhibitor, full curve] | –
COc1ccc(C)cc1Nc1n[n+](-c2ccccc2)c(-c2ccc(NC(C)=O)cc2)s1 | – | inactive: -16.4%
CSCCC(NC(=O)c1ccco1)C(=O)OCC(=O)Nc1ncc(Cl)c(C)c1Cl (centres undefined) | inconclusive: 11.2 µM [inhibitor, partial curve, poor fit] | –
Cc1cc(O)c(-c2ccnc3cc(-c4ccccc4)nn23)cc1Cl | inconclusive: 112 µM [inhibitor, partial curve, poor fit] | –
Cn1cc([N+](=O)[O-])c(C(=O)Nc2cc(Oc3cccnc3)cc([N+](=O)[O-])c2)n1 | inconclusive: 112 µM [inhibitor, single point] | –

Record cards (already shown):
`CCn1c(C)nc2cc(C(=O)NNS(=O)(=O)c3ccccc3F)ccc21` as listed: Potency: active: 4.47 µM
`Cc1nc(-c2ccc(C)c(S(=O)(=O)N3CCC(C(=O)Nc4ccc(Cl)cc4)CC3)c2)no1` as listed: Potency: inconclusive: 0.178 µM [inhibitor, full curve, poor fit]
`O=C(O)C1CCN(C(=O)c2ccccc2N2C(=O)[C@@H]3Cc4c([nH]c5ccccc45)C(c4cccc(Cl)c4)N3C2=O)CC1` (some centres undefined) as listed: Potency: inconclusive: 50.1 µM [inhibitor, partial curve, poor fit]
